Earlier results as cited in patent US20220265723A1, “NON-VIRAL MODIFICATION OF MESENCHYMAL STEM CELLS” (NATIONAL UNIVERSITY OF SINGAPORE, priority 2019, published 2022).
At least one structure is not confirmed: it was looked up by name or label, or the drawing left a doubt.

Details: active drug formed from the prodrug of the system; read-out: Potency, IC50 (μM) Drug; cited from earlier work

Question: For COc1ncnc2c1ncn2C1OC(COP(=O)(O)OP(=O)(O)OP(=O)(O)O)C(O)C1O (stereo not shown) [Ara-MTP], which IC50 is on record?
Answer: < 1 µM
